Experimental data from paper PMC2651531.
These are yes or no findings as the source states them, for the method shown. Binding seen in cells or lysates may run through a third protein. Some entries that bind do so weakly or less than the wild type. Sequences can lack the tags named with a protein.

Sequences of proteins named here, by UniProt entry; tags and fusion partners are left off. Residues count along the entry.
UniProt Q8WUM4, residues 1-202: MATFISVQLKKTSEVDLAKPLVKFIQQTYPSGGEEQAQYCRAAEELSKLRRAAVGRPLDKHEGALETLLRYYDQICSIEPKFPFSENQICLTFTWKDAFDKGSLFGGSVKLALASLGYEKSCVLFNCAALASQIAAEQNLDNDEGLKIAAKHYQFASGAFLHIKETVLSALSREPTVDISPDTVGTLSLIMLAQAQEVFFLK

molecular target: HA-Broi (first 202 residues of the Bro1 domain of Alix) (human) (UniProt Q8WUM4); test: co-IP; 293T cells co-transfected with HA-Alix or Alix fragments and FLAG-tagged CHMP4A, CHMP4B, CHMP4C or MAP/RabGAPLP; RIPA lysate; anti-HA antibody-conjugated beads; blot with anti-HA and anti-Flag

| Binder | binding |
| --- | --- |
| FLAG-CHMP4B (protein, UniProt Q9H444 1-224) MSVFGKLFGAGGGKAGKGGPTPQEAIQRLRDTEEMLSKKQEFLEKKIEQELTAAKKHGTKNKRAALQALKRKKRYEKQLAQIDGTLSTIEFQREALENANTNTEVLKNMGYAAKAMKAAHDNMDIDKVDELMQDIADQQELAEEISTAISKPVGFGEEFDEDELMAELEELEQEELDKNLLEISGPETVPLPNVPSIALPSKPAKKKEEEDDDMKELENWAGSM | no binding |
| FLAG-CHMP4A (protein, UniProt Q9BY43 1-222) MSGLGRLFGKGKKEKGPTPEEAIQKLKETEKILIKKQEFLEQKIQQELQTAKKYGTKNKRAALQALRRKKRFEQQLAQTDGTLSTLEFQREAIENATTNAEVLRTMELAAQSMKKAYQDMDIDKVDELMTDITEQQEVAQQISDAISRPMGFGDDVDEDELLEELEELEQEELAQELLNVGDKEEEPSVKLPSVPSTHLPAGPAPKVDEDEEALKQLAEWVS | no binding |

Results, then the binder that gave them:

| binding | Binder |
| --- | --- |
| binds | FLAG-MAP/RabGAPLP (protein, UniProt Q96HU1-1 1-749) MSGSHTPACGPFSALTPSIWPQEILAKYTQKEESAEQPEFYYDEFGFRVYKEEGDEPGSSLLANSPLMEDAPQRLRWQAHLEFTHNHDVGDLTWDKIAVSLPRSEKLRSLVLAGIPHGMRPQLWMRLSGALQKKRNSELSYREIVKNSSNDETIAAKQIEKDLLRTMPSNACFASMGSIGVPRLRRVLRALAWLYPEIGYCQGTGMVAACLLLFLEEEDAFWMMSAIIEDLLPASYFSTTLLGVQTDQRVLRHLIVQYLPRLDKLLQEHDIELSLITLHWFLTAFASVVDIKLLLRIWDLFFYEGSRVLFQLTLGMLHLKEEELIQSENSASIFNTLSDIPSQMEDAELLLGVAMRLAGSLTDVAVETQRRKHLAYLIADQGQLLGAGTLTNLSQVVRRRTQRRKSTITALLFGEDDLEALKAKNIKQTELVADLREAILRVARHFQCTDPKNCSVELTPDYSMESHQRDHENYVACSRSHRRRAKALLDFERHDDDELGFRKNDIITIVSQKDEHCWVGELNGLRGWFPAKFVEVLDERSKEYSIAGDDSVTEGVTDLVRGTLCPALKALFEHGLKKPSLLGGACHPWLFIEEAAGREVERDFASVYSRLVLCKTFRLDEDGKVLTPEELLYRAVQSVNVTHDAVHAQMDVKLRSLICVGLNEQVLHLWLEVLCSSLPTVEKWYQPWSFLRSPGWVQIKCELRVLCCFAFSLSQDWELPAKREAQQPLKEGVRDMLVKHHLFSWDVDG |
| no binding | FLAG-CHMP4C (protein, UniProt Q96CF2 1-233) MSKLGKFFKGGGSSKSRAAPSPQEALVRLRETEEMLGKKQEYLENRIQREIALAKKHGTQNKRAALQALKRKKRFEKQLTQIDGTLSTIEFQREALENSHTNTEVLRNMGFAAKAMKSVHENMDLNKIDDLMQEITEQQDIAQEISEAFSQRVGFGDDFDEDELMAELEELEQEELNKKMTNIRLPNVPSSSLPAQPNRKPGMSSTARRSRAASSQRAEEEDDDIKQLAAWAT |
